Experimental data: US20220403048A1, “BINDING MOLECULES TO ARGINASE II [ARG2]” (Cancer Research Technology Limited, priority 2019, published 2022)
Results are given in words; binding and its absence hold for the method and conditions named. Binding can be weak; no strength is given.

Legend:
[1] = target: biotinylated recombinant human trimeric ARG2 enzyme (Avi-huARG2-His10) (human); experiment: HTRF direct binding, purified scFv
[2] = target: biotinylated recombinant human trimeric ARG2 enzyme (Avi-huARG2-His10) (human); experiment: HTRF direct binding assay, biotinylated recombinant human trimeric ARG2, streptavidin cryptate and anti-c-myc-XL665, % Delta F

binding [1]: binds
binding [2]: binds
B1: C0020065 scFv (scFv, V domains shown)
VH: GVNLRESGGGVVQPGRSLRLSCAASGFTFSSYAMHWVRQAPGKGLEWVAVISYDGSNKYYVDSVKGRFTISRDNSKNTLYLQMNSLRAEDTAVYYCARDSSQLWFDYWGRGTLVTVSS
VL: QSVVTQPPSVSGAPGQRVTISCTGSSSNIGTGYDVHWYQQLPGTAPKLLIYGNSNRPSGVPDRFSGSKSGTSASLAITGLQAEDEADYYCQSYDSSLSGSVVFGGGTQLTVL
